# Measured values from PubChem BioAssay AID540275 (National Center for Advancing Translational Sciences (NCATS), 2011).
# Amino acid sequences for entries named in this document (tags omitted).
# UniProt Q8NER1, whole entry, looked up: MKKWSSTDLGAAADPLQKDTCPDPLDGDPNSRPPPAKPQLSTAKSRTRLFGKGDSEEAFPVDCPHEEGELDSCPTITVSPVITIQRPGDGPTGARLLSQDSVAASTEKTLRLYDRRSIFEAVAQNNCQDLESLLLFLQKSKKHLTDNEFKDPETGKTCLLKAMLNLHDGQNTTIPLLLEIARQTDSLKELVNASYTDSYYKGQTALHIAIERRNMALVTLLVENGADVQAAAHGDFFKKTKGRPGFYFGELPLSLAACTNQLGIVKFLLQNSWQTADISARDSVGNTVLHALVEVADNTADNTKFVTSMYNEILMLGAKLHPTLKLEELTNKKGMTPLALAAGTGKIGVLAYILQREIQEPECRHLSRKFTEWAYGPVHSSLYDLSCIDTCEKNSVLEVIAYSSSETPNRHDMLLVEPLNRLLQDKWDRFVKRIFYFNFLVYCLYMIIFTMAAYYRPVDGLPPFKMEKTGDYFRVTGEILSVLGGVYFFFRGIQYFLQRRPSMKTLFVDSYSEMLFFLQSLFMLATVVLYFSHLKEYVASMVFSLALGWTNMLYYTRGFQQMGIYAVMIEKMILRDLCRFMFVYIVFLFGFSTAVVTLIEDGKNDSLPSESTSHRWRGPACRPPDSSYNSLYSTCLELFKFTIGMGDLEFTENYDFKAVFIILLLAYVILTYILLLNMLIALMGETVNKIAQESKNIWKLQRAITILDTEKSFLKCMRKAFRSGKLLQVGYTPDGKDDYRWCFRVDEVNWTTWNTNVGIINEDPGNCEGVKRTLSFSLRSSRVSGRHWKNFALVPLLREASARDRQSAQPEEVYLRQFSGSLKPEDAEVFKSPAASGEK
# The campaign covered roughly 320,000 compounds. About 620 (0.19%) were called active. The inconclusive results got no clear call from the source; some entries with a clear call stand among them for comparison. Cut-off read from the data, not from the text of the source: active = activation above about 80%; inconclusive = between about 30% and that limit; inactive = weaker than that.
# Target: Transient receptor potential cation channel subfamily V member 1 (Homo sapiens) (UniProt Q8NER1)
# Experiment: HTS Assay for Compounds that Act as Agonists of the Vanilloid Receptor 1; note: 0% is about no effect
# Settings: TRPV1-expressing cells, Fluo-8 calcium influx, agonist mode; at 8.33 µM, hits give high values
# Outline: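 Fluo-8 calcium influx in TRPV1-expressing cells, kinetic read (ex 480/em 520 nm). Compound added and read 3 min for agonist activity, followed by capsaicin at EC20 final and 2 min further read for enhancement.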
row,SMILES,activation
1,c1ccc2c(NCC3CCCO3)nc(N3CCCCC3)nc2c1 (configuration not stated),inconclusive: 46%
2,COc1ccc(-n2c(=S)[nH]c3cc(C(=O)Nc4ccc(F)cc4)ccc3c2=O)c(OC)c1,inconclusive: 39.1%
3,CC(C)Oc1cccc(C(=O)N/N=C/c2ccoc2)c1,inconclusive: 38.2%
4,CC(C)(C)CC(C)(C)NC(=O)c1ccc2snnc2c1,inconclusive: 67.2%
5,O=C(Nc1nc(-c2ccc(Cl)cc2)cs1)C1CCCO1 (configuration not stated),inconclusive: 32.5%
6,COc1ccc(CN(C(=O)Cn2nnc(-c3ccc(C)o3)n2)C(C(=O)NCC2CCCO2)c2ccco2)cc1 (configuration not stated),inactive: 13.6%
7,COc1ccc(CNC(=O)COC(=O)c2ccc(Br)cc2)cc1,inconclusive: 33.9%
8,CCOC(=O)CSc1nc2c(c(=O)[nH]1)C(C)(CC)Cc1ccccc1-2 (configuration not stated),inconclusive: 35.4%
9,C=CCc1ccccc1OCC(O)CNC(=O)c1ccccc1C(=O)O (configuration not stated),inconclusive: 33.3%
10,O=[N+]([O-])c1cccc(/C=N/Nc2nc(NCc3ccccc3)nc(N3CCOCC3)n2)c1,inconclusive: 63.9%
11,Cc1ccc(C2(O)CN(c3ccccc3)C3=[N+]2CCS3)cc1 (configuration not stated),inconclusive: 53.9%
12,O=C(NCCc1ccccc1)c1cccs1,inconclusive: 40.3%
13,CCN(c1ccccc1)S(=O)(=O)c1cccc(C(=O)N(C)CCOc2ccccc2)c1,inconclusive: 31.2%
14,O=C(Nc1ccc(Br)cn1)c1ccc(Cl)s1,active: 98.9%
15,Cc1ccccc1CNC(=O)C1CCCN(c2nnc(C)c3c(C)n(-c4ccccc4)nc23)C1 (configuration not stated),inconclusive: 60.6%
16,CCn1cc(C(=O)NCc2ccc3c(c2)OCO3)c(=O)c2cc(S(=O)(=O)N(C)C)ccc21,inconclusive: 47.9%
17,OCCCN=c1cc(-c2ccccc2)oc2ccc(Cl)cc12,inactive: 16.5%
18,CCOC(=O)CCC(NC(=O)c1cncc(O)c1)C(=O)OCC (configuration not stated),inactive: -2.72%
19,Cc1nc(SCC(=O)Nc2ccc(OCc3ccccc3)cc2)n[nH]1,inconclusive: 44.9%
20,Cc1cccc(N2C(=O)CN(Cc3sccc3C)C2=S)c1,inconclusive: 31.6%
21,S=C1NC2(CCCCC2)Cc2ccccc21,inactive: 8.87%
22,CC(=O)N1CCN(C(=O)c2ccc(S(=O)(=O)Nc3cccc(C(F)(F)F)c3)cc2)CC1,inactive: -0.47%
23,Cc1cc(NC(=S)Nc2cccnc2)ccc1Br,inconclusive: 45.3%

row,SMILES,activation
1,CCCCC(=O)NC(=S)NNC(=O)CC#N,inactive: -3.08%
2,Cc1ccc(NC(=O)c2ccc(OC(=O)C(C)Oc3ccc(Cl)cc3C)cc2)cc1 (configuration not stated),inconclusive: 69.8%
3,NS(=O)(=O)c1cccc(NC(=O)Nc2ccc(Cl)cc2)c1,inconclusive: 42.1%
4,Cn1nccc1C(=O)Nc1sc2c(c1C#N)CCCC2,inconclusive: 57.3%
5,O=C(Nc1ccccc1)c1ccc(CSc2ccccn2)cc1,inconclusive: 59.1%
6,O=C1c2ccccc2C(=O)N1CCCCSc1nc2ccccc2c(=O)n1CCCN1CCOCC1,inactive: 28.4%
7,O=C(Nc1ccccc1)C1=C[C@@H](c2ccc(Br)cc2)C[C@@H](OCCCCO)O1,inactive: -0.117%
8,CC(C)c1ccc(NC2CCCN(C(=O)c3cccnc3)C2)cc1 (configuration not stated),inconclusive: 52.2%
9,O=C(Nc1ccccc1)N1CCCN(Cc2c(F)cccc2Cl)CC1,inconclusive: 51.8%
10,O=C(NCCc1ccc2c(c1)OCCO2)c1cc(F)cc(F)c1,inconclusive: 55.2%
11,CCOC(=O)CCCCC(=O)c1[nH]c(=O)[nH]c1CSCCO,inactive: -1.47%
12,CCOC(=O)C(/C(N)=N/C(=O)Nc1ccccc1)=C(\C)O,inconclusive: 41.7%
13,CCCNC(=O)N1CCC(Cc2ccccc2)CC1,inconclusive: 37.3%
14,COc1ccc(NC(=O)c2ccc(-c3ccccc3)cc2)cc1S(=O)(=O)N1CCOCC1,inactive: -2.36%
15,CC(C)(C)OC(=O)COc1cc(OCC(=O)OC(C)(C)C)c2c(=O)cc(-c3ccccc3)oc2c1,inconclusive: 39.3%
16,Cc1c(Cc2ccccc2)sc(NC(=O)c2ccco2)c1C(N)=O,inactive: 0.693%
17,CCN(CC)c1ccc(NC(=O)c2cccnc2)cc1,inconclusive: 65.2%
18,CC(C)CN(CC(C)C)C(=S)NC1CCCCC1,inactive: 28.4%
19,COc1ccccc1CNC(=O)CN(C)Cc1ccc(SC)cc1,inconclusive: 33.4%
20,CC(=O)NCCc1csc(-c2ccccc2)n1,inconclusive: 40.1%
21,CCc1ccc2c(c1)[C@H]1OCC[C@H]1[C@@H](c1cccs1)N2,inconclusive: 42.2%
22,CC(=O)c1ccc(-n2cc(-c3ccc(C(C)(C)C)cc3)[n+]3c2SCCC3)cc1,inactive: 1.51%
23,Cc1ccc(C(=O)Nc2cccnc2)cc1[N+](=O)[O-],inconclusive: 44.1%

# Random excerpt: three records from the list.
row,SMILES,activation
14,O=C(Nc1ccc(Br)cn1)c1ccc(Cl)s1,active: 98.9%
16,Cc1c(Cc2ccccc2)sc(NC(=O)c2ccco2)c1C(N)=O,inactive: 0.693%
20,Cc1cccc(N2C(=O)CN(Cc3sccc3C)C2=S)c1,inconclusive: 31.6%

# 2 of these compounds in another layout.
row | SMILES | activation
7 | O=C(Nc1ccccc1)C1=C[C@@H](c2ccc(Br)cc2)C[C@@H](OCCCCO)O1 | inactive: -0.117%
20 | CC(=O)NCCc1csc(-c2ccccc2)n1 | inconclusive: 40.1%

# Next part:

row,SMILES,activation
1,N#Cc1c(N)n[nH]c1-c1cc2c([nH]1)CCCC2,inactive: 0.475%
2,S=C(NC1CCCCC1)N1CCOCCOCCN(C(=S)NC2CCCCC2)CCOCCOCC1,inconclusive: 41%
3,CCCOc1ccc(-c2nc(C#N)c(N3CCC(C(N)=O)CC3)o2)cc1,inconclusive: 50.3%
4,CCCCOc1ccc(C(=O)Nc2ccc3c(c2)OCO3)cc1,inconclusive: 43.5%
5,Nc1nnc(Sc2ncccc2[N+](=O)[O-])s1,inactive: -1.89%
6,O=C1CN(C(=O)c2ccc(Br)o2)C(c2ccccc2)c2cc(F)ccc2N1 (configuration not stated),inactive: 12.5%
7,O=C(NC1CC2CCCC(C1)N2Cc1ccc(F)cc1)c1ccc(F)cc1 (configuration not stated),inconclusive: 37.4%
8,Cc1ccccc1-c1noc(CCC(=O)NC2CCCCC2)n1,inconclusive: 36.6%
9,O=C(CN1CCN(c2ccccn2)CC1)Nc1ccccc1C(=O)Nc1ccccc1,inconclusive: 54.4%
10,COc1ccc(C2N=C(c3ccccc3)C(C)(C)N2O)cc1OC (configuration not stated),inactive: -1.29%
11,COc1cccc(C(=O)NCC2(c3ccccc3)CCCC2)c1OC,inconclusive: 53.4%
12,CC1CCN(S(=O)(=O)CCNC(=O)c2ccc(F)cc2)CC1,inconclusive: 35.7%
13,CCc1c(C(=O)Nc2ccncc2)csc1C,inconclusive: 33.7%
14,CCSc1ccccc1C(=O)N1CCC2(CC1)CC(=O)c1ccccc1O2,inconclusive: 68.5%
15,OCCNC(=S)Nc1ccc(Oc2ccccc2)cc1,inconclusive: 30.5%
16,O=C(N/N=C/c1ccc(Br)s1)c1cccnc1,inconclusive: 49.4%
17,COc1ccc(/C=C(\C#N)C(=O)N2CCOCC2)cc1Br,inconclusive: 41.7%
18,CCOC(=O)c1c(CSc2ccc(CC)cc2)oc2ccc(O)c(CN(C)C)c12,inactive: 12.8%
19,Cc1ccc(S(=O)(=O)N(CC(=O)NCc2ccncc2)Cc2ccc(F)cc2)cc1,inconclusive: 69.6%
20,Cc1cccc(C(=O)Nc2nc3ccc(S(C)(=O)=O)cc3s2)c1,inconclusive: 42.5%
21,O=C(Nc1cccc2ccccc12)c1ccc(F)cc1,inconclusive: 54.9%
22,Cc1ccc(-n2ncc(C(=O)NC3CC3)c2C2CCN(C(=O)OC(C)(C)C)CC2)cc1,inconclusive: 71.4%
23,COc1ccc2c(c1OC)CCC2=O,inactive: 0.143%

row,SMILES,activation
1,CCn1cc(NC(=O)Nc2ccccc2C(=O)OC)c(C(N)=O)n1,inactive: 0.277%
2,CCOC(=O)C(=O)N1CCN(c2nc(-c3ccc(Cl)cc3)cs2)CC1,inconclusive: 38.9%
3,CCCC[C@H]1COCCS(=O)(=O)N1Cc1ccc(C)cc1,inconclusive: 49.1%
4,CC1CCCCC1NC(=O)NC(=O)COC(=O)C1=NN(c2ccccc2)C(=O)CC1 (configuration not stated),inactive: 0.278%
5,c1ccc(Cc2nc3ccccc3n2Cc2ccccc2)cc1,inconclusive: 38.3%
6,O=C(/C=C/c1cccs1)Nc1ccc(Br)cn1,inconclusive: 47.4%
7,CCC(C)Sc1nc2c([nH]c3ccccc32)c(=O)n1C (configuration not stated),inconclusive: 41.5%
8,Cc1onc(-c2ccccc2)c1CNC(=O)Nc1ccccc1,inconclusive: 74.9%
9,O=c1c(Cl)nc2cc(Cl)ccc2n1CCNc1ncc(C(F)(F)F)cc1Cl,inactive: 7.33%
10,CC1CCCCC1NC(=O)COC(=O)C12CC3CC(CC(Cl)(C3)C1)C2 (configuration not stated),inconclusive: 32%
11,O=C(COC(=O)CCOc1ccccc1)NCCC1=CCCCC1,inconclusive: 35.8%
12,Cc1ccc(-c2nnc(Cc3ccc(Cl)cc3)o2)cc1,inconclusive: 36.3%
13,COc1ccc(OC)c(C(=O)Cn2nnc3ccccc3c2=O)c1,inactive: -1.37%
14,COc1cccc(N2CC(C(=O)Oc3ccc4ccccc4c3)CC2=O)c1 (configuration not stated),inconclusive: 50%
15,COCCCNC(=O)c1cccc(S(=O)(=O)N2CC3(C)CC2CC(C)(C)C3)c1 (configuration not stated),inconclusive: 33.1%
16,COc1ccc(N(C)S(=O)(=O)c2cccc(C(=O)Nc3cccc(C(=O)NC4CC4)c3)c2)cc1,inconclusive: 41.1%
17,Cc1ccc(C2C(=O)N(C3CCCC3)CC(=O)N2CC2COc3ccccc3O2)cc1 (configuration not stated),inconclusive: 33.8%
18,CC(NC(=O)C(=O)N1CCOCC1)C(c1cccs1)N1CCN(c2ccccc2F)CC1 (configuration not stated),inconclusive: 31.8%
19,Cc1ccc(/C=C/C(=O)Nc2cccc(S(=O)(=O)N3CCOCC3)c2)o1,inactive: 20.6%
20,COc1ccc(C(CC(=O)N2CCCC(C)C2)c2c(O)cc(OC)cc2OC)cc1 (configuration not stated),inactive: 0.658%
21,O=C(NC(=S)N1CCCc2ccccc21)c1ccco1,inactive: -4.77%
22,CCOc1ccc2c(c1)C(C)=CC(C)(C)N2S(=O)(=O)c1ccc(NC(C)=O)cc1,inconclusive: 36%
23,CCOC(=O)c1[nH]c2ccc(OC)cc2c1NS(=O)(=O)c1ccc(Cl)s1,inconclusive: 49.6%

# 3 compounds from above, sorted by heavy-atom count, descending:
row,SMILES,activation
8,CC(C)c1ccc(NC2CCCN(C(=O)c3cccnc3)C2)cc1 (configuration not stated),inconclusive: 52.2%
1,c1ccc2c(NCC3CCCO3)nc(N3CCCCC3)nc2c1 (configuration not stated),inconclusive: 46%
3,NS(=O)(=O)c1cccc(NC(=O)Nc2ccc(Cl)cc2)c1,inconclusive: 42.1%
